According to patent US9850282B2, “Stable pentadecapeptide salts, a process for preparation thereof, a use thereof in the manufacture of pharmaceutical preparations and a use thereof in therapy” (priority 2013, dated 2017):
At least one peptide structure holds a part that was inferred or is arguable (an end, a ring closure or a residue).

Key:
Verapamil overdose = assay type: in vivo, rats; details: verapamil 40 mg/kg i.p.; bepecin 10 μg/kg and 10 ng/kg i.p., pre- or post-treatment
dopamine system = assay: Neuroleptic-induced catalepsy and somatosensory disorders; assay type: in vivo; details: haloperidol, flufenazin and clozapine
[1] = tested on: human melanoma cell culture; assay: Human melanoma cell culture, morphology and flow cytometry; assay type: cell-based; details: for Number of cells in S-phase compared to control: flow cytometry
[2] = Furosemide hypokalemia, ECG; assay type: in vivo
Side effects of NSAIDs = assay type: in vivo
Weight gain in piglets = assay type: in vivo; details: piglets treated from day 1 to day 21
[3] = Brain injuries induced by a falling weight; details: in vivo
[4] = tested on: herpes viruses HSV-1 and HSV-2; assay: VERO cells inoculated with herpes viruses; details: incubation 24, 48 and 72 hours

Substance: H-GEPPPGKPADDAGLV-OH [Bepecin]
- Sinus rhythm after verapamil (Verapamil overdose): sinus rhythm was retained or recovered
- Consequences of neuroleptics (dopamine system): counteracts the consequences of dopamine receptors blockade, catalepsy and somatosensory disorders
- Number of cells in S-phase compared to control ([1]; 2 pg/ml of bepecin): 20%
- Density of melanocyte cells ([1]; 2 pg/ml, 2 ng/ml and 10 ng/ml, 48 hours): considerably decreased
- Number of cells in S-phase compared to control ([1]; 2 ng/ml of bepecin): 55%
- Number of cells in S-phase compared to control ([1]; 10 ng/ml of bepecin): 55%
- Time to normalization of ECG and termination of ventricular tachycardia ([2]; bepecin given 90 min after furosemide): 5 to 10 min
- Cardiac rhythm despite hypokalemia ([2]; furosemide 100 mg/kg i.p., bepecin 10 μg/kg and 10 ng/kg, i.p. and i.g.): maintained sinus rhythm
- Thrombocytopenia after aspirin or diclofenac (Side effects of NSAIDs; 10 ng to 10 μg/kg parenterally, intragastrically or in potable water): effectively antagonizes thrombocytopenia
- NSAID-induced gastric, intestinal, liver and brain lesions, prolonged bleeding and behavioural disturbances (Side effects of NSAIDs; parenteral or oral): all counteracted
- Weight gain and diarrhea (Weight gain in piglets): substantially better weight gain and no diarrhea
- Consequences of brain injuries [3]: strongly decreased the consequences of animal brain injuries induced by a falling weight
- Cytopathogenic action of HSV viruses on cells [4]: protects cells against cytopathogenic action
- Reproduction of HSV virus [4]: inhibits reproduction of HSV virus
